From patent US20120052075A1
These are yes or no findings as the source states them, for the method shown. Some entries that bind do so weakly or less than the wild type.

Sequences of proteins named here, by UniProt entry; tags and fusion partners are left off. A change or cut given only in a name is not applied to a line headed by its entry.
UniProt Q96PQ0: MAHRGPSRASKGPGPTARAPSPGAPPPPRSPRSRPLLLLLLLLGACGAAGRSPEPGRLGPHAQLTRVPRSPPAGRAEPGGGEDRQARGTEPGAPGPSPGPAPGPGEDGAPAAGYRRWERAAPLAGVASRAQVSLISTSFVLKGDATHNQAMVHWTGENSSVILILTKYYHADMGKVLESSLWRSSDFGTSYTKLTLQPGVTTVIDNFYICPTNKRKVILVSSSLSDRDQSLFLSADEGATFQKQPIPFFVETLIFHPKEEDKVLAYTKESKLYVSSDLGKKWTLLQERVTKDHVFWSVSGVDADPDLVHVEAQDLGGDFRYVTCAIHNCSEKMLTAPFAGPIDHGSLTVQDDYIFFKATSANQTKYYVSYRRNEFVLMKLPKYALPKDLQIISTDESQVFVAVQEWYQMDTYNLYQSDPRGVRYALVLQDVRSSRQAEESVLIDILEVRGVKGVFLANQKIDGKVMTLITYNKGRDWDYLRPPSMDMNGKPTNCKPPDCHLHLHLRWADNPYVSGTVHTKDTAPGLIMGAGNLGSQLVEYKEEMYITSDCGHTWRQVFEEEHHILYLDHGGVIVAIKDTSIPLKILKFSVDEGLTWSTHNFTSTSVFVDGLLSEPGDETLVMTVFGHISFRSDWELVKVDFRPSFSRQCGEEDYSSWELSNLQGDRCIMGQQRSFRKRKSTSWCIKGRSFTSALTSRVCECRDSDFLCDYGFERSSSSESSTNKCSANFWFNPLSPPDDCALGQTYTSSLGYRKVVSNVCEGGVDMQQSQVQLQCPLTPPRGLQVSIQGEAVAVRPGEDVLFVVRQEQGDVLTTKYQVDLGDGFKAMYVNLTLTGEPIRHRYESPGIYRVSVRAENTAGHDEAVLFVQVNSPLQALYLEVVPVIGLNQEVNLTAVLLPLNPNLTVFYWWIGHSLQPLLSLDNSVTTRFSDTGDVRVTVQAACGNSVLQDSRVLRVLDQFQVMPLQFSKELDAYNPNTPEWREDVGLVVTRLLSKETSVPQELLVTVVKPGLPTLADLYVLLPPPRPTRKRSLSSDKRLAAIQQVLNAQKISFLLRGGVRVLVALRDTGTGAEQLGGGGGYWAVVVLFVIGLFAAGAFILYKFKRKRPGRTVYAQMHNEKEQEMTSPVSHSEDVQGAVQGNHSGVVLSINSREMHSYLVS

Key:
[1] = target: soluble SorCS2 (extracellular domain of SorCS2), immobilized on the Biacore chip (Homo sapiens in the sequence list; not stated for the assay) (UniProt Q96PQ0); assay: SPR (BIAcore), soluble SorCS2 immobilized on a CM5 chip, mature BDNF at 10 and 20 nM in solution
[2] = target: soluble SorCS2 (extracellular domain of SorCS2), immobilized on the Biacore chip (Homo sapiens in the sequence list; not stated for the assay) (UniProt Q96PQ0); assay: SPR (Biacore), CM5 chip coated with SorCS2
[3] = target: soluble SorCS2 (extracellular domain of SorCS2), immobilized on the Biacore chip (Homo sapiens in the sequence list; not stated for the assay) (UniProt Q96PQ0); assay: SPR (BIAcore), as in FIG. 7

Measured: binding

B1: mature BDNF (ligand)
chain: HSDPARRGELSVCDSISEWVTAADKKTAVDMSGGTVTVLEKVPVSKGQLKQYFYETKCNPMGYTKEGCRGIDKRHWNSQCRTTQSYVRALTMDSKKRIGWRFIRIDTSCVCTLTIKRGR
binds: all assays above
